Some of the results follow.
Columns and labels:
Test in all cases: log2 fold change, soluble protein after heating vs DMSO (PISA); higher = thermal stabilisation; K562 cells, 10 uM, 30 min; active = over 0.2 and 3.5 SD of the protein, either way, in both replicates (recomputed)
[1] = compound: CS(=O)(=O)c1ccc(-c2cnc(N)c(C(=O)Nc3ccccc3)n2)cc1
Summary of the method: (§1)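 Soluble protein was defined as the supernatant after 21,000xg for 90 min. It came from K562 cells at 2×10^6 cells/mL given 10 μM compound for 30 min, heated in aliquots for 3 min across 48°C-58°C, pooled, and extracted in PBS with 0.5% NP-40 at 4°C, and was quantified by TMTpro 16plex LC-MS/MS with equalised channel sums. Thermal stability against control samples, from duplicates, is reported as log2 fold change.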

Sequences of proteins named here, by UniProt entry; tags and fusion partners are left off. A change or cut given only in a name is not applied to a line headed by its entry.
UniProt Q96NT1: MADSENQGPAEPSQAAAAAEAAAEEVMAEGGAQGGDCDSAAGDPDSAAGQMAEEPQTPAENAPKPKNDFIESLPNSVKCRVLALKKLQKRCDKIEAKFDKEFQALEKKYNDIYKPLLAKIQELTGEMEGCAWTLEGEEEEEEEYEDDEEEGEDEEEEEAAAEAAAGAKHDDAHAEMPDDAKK
UniProt Q9UN36: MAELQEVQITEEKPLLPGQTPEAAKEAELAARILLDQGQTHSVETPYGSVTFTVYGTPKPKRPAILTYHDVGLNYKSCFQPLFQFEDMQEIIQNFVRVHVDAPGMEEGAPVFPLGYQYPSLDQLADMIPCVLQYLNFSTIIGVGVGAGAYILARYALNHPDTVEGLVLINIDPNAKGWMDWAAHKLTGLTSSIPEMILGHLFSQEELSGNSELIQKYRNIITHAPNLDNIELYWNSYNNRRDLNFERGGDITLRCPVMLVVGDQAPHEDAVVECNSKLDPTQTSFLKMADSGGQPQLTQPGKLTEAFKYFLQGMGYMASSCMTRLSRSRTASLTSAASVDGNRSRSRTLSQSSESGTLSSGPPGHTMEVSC
UniProt A2RRP1: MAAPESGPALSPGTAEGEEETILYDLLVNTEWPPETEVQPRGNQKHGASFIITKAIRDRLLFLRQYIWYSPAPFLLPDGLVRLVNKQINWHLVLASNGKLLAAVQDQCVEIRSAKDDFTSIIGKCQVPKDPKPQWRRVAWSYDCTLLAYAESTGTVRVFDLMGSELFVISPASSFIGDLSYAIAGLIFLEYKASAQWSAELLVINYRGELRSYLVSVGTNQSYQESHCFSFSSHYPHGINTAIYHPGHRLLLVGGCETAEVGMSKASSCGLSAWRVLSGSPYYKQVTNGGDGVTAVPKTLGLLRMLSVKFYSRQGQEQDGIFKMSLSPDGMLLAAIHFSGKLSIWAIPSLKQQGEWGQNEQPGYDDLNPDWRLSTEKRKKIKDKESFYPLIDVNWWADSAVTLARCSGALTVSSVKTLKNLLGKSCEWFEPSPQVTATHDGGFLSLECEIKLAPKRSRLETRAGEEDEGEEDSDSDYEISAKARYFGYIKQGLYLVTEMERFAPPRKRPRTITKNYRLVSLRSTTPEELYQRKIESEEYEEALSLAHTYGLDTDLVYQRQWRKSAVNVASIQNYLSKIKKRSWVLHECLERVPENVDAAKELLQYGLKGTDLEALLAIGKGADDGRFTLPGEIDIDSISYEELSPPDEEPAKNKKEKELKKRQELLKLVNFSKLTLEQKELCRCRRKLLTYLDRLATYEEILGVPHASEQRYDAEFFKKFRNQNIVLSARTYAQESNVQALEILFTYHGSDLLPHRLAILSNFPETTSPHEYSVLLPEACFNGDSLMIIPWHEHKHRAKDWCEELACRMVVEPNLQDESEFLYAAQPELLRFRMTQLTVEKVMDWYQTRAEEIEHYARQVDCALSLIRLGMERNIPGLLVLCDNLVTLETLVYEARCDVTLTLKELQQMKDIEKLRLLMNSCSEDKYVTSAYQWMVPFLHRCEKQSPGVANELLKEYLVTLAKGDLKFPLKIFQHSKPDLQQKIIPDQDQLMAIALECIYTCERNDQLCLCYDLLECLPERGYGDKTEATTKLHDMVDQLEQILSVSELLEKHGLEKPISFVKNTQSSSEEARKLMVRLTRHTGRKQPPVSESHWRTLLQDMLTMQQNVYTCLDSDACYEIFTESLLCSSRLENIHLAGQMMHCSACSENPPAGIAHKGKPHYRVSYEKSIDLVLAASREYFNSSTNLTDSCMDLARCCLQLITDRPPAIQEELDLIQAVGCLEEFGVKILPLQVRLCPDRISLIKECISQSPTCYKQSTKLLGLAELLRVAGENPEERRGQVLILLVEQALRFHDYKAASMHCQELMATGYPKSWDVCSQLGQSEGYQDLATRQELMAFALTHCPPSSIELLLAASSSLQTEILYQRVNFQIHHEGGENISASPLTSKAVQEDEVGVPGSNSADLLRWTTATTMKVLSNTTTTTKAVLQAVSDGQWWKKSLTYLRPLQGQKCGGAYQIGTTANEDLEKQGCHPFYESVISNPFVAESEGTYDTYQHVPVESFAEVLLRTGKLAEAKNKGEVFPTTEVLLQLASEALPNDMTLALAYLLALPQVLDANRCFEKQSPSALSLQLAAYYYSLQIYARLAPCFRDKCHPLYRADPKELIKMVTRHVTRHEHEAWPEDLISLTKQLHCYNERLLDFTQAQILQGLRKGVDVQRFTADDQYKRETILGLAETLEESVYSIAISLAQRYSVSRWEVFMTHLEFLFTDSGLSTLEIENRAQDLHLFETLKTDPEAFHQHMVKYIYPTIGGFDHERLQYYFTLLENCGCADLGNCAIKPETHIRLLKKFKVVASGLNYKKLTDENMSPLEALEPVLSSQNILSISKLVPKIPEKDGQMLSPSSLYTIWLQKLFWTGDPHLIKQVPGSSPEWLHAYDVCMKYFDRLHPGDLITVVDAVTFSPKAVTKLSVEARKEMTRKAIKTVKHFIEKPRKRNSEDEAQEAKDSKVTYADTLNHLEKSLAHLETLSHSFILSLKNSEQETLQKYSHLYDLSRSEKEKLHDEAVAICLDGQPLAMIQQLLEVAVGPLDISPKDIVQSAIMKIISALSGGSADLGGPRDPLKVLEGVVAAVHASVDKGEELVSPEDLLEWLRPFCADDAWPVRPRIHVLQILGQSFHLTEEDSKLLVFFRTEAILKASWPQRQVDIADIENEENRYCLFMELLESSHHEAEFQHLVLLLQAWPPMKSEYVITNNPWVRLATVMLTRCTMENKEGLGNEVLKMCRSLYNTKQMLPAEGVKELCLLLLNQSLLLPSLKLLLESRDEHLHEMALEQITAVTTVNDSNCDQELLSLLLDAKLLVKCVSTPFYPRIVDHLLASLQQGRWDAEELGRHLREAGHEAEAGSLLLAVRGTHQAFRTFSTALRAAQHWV
UniProt O14777: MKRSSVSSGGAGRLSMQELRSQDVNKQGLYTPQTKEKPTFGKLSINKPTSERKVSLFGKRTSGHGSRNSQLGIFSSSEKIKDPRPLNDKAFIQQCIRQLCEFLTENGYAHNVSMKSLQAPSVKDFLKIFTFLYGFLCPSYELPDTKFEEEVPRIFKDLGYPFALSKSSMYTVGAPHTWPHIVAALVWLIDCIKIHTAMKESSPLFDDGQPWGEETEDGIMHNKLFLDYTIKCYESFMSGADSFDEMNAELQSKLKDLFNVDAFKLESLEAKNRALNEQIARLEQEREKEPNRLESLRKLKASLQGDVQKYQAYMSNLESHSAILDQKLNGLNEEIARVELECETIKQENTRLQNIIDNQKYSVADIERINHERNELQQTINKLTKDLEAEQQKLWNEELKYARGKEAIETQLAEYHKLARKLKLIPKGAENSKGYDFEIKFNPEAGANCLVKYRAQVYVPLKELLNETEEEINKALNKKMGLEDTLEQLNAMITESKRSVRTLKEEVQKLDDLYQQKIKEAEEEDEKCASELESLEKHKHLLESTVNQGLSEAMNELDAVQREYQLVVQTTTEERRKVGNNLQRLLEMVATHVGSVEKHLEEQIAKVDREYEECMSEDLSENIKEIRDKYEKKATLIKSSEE
UniProt P19404, whole entry, looked up: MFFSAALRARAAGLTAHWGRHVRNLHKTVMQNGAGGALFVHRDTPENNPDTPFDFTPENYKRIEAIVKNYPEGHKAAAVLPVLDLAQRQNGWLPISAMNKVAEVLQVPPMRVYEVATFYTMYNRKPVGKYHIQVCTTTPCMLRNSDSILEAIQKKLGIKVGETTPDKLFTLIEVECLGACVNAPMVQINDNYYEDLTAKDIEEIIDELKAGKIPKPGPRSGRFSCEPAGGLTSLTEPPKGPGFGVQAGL
UniProt O75380, whole entry, looked up: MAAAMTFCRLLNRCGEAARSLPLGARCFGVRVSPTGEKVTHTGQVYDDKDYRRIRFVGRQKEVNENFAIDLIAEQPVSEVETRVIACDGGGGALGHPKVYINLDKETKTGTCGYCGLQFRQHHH
UniProt Q9UJ70, whole entry, looked up: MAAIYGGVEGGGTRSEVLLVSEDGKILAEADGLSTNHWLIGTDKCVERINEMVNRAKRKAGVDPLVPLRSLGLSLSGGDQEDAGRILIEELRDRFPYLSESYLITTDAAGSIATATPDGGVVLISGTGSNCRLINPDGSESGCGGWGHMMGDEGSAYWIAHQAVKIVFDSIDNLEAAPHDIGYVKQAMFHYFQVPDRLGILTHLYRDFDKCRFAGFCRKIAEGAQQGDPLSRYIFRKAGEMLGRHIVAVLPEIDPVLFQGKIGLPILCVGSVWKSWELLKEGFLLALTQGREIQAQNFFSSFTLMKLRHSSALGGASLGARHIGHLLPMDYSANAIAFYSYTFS
UniProt Q9GZZ1: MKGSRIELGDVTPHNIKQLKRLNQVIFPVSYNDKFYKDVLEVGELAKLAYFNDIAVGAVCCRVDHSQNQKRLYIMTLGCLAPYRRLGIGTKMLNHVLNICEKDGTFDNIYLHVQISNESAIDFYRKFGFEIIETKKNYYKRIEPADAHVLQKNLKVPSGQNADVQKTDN
UniProt Q9NX14, whole entry, looked up: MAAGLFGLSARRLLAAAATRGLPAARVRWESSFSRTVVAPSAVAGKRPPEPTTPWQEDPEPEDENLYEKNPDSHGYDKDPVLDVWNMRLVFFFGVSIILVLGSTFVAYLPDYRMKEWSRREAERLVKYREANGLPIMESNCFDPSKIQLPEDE
UniProt P56181: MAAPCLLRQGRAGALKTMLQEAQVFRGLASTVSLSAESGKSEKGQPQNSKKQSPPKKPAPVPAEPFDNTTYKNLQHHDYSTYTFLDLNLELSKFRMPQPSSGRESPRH
UniProt O95168, whole entry, looked up: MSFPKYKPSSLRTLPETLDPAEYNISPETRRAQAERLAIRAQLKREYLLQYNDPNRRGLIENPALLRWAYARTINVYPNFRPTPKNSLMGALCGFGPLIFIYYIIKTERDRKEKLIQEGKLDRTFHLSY
UniProt O75489, whole entry, looked up: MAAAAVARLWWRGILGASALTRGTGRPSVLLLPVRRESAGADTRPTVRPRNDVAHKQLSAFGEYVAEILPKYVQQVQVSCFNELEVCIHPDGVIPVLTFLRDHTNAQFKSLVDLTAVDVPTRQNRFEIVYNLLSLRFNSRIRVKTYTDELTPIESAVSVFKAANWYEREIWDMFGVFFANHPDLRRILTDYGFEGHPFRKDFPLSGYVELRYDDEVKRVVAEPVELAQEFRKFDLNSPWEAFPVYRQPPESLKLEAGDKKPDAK
UniProt P43490: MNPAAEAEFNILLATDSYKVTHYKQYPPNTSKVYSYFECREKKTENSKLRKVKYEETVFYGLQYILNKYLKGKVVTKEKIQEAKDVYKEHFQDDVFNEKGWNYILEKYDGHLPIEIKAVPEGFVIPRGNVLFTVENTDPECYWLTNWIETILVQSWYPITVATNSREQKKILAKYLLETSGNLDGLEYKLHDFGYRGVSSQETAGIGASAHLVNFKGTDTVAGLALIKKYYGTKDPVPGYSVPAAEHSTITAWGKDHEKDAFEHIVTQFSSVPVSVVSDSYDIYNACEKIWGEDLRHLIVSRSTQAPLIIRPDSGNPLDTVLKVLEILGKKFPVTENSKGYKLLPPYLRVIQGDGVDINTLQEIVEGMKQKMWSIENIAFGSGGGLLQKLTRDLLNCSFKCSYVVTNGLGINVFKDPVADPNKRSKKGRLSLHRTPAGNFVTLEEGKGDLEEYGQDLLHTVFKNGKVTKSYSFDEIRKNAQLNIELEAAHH
UniProt Q9UGV2: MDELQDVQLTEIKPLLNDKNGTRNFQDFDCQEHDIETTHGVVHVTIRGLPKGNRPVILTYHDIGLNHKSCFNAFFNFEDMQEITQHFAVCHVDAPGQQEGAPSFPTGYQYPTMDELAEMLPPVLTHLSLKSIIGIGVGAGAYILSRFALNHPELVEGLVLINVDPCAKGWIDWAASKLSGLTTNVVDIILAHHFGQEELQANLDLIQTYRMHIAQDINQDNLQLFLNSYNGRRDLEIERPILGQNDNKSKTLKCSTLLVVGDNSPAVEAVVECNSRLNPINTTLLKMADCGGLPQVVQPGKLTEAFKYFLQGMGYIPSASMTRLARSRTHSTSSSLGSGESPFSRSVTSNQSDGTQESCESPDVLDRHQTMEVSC
UniProt Q86Y39, whole entry, looked up: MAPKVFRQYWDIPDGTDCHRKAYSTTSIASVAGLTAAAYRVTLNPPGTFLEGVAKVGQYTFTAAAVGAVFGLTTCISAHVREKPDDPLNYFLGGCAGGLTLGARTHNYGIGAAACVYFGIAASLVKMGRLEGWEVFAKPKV
UniProt O95544: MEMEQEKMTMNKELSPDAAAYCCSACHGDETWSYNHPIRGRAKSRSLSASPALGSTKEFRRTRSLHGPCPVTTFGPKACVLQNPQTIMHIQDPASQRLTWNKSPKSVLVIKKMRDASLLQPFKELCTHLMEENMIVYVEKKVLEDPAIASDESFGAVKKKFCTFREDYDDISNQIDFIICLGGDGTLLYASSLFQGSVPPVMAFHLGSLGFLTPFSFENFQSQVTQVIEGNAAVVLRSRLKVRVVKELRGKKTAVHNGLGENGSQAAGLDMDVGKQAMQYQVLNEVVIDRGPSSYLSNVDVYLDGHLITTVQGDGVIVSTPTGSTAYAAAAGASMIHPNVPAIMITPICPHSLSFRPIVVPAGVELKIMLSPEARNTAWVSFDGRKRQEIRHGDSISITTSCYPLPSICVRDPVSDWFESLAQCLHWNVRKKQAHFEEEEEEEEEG

[2] = compound: C[C@@H](Oc1cc(-c2cnn(C3CCNCC3)c2)cnc1N)c1c(Cl)ccc(F)c1Cl [crizotinib]
Summary of the method: as §1

[3] = compound: C[C@@H]1COCCN1C2=NC(=NC(=C2)C3(CC3)S(=O)(=O)C)C4=C5C=CNC5=CC=C4
Summary of the method: as §1

[4] = compound: C[C@H](C1=CC=C(C=C1)C(=O)NC2=C3C=CNC3=NC=C2)N
Summary of the method: as §1

[5] = compound: C[C@H](Nc1ncnc2nc[nH]c12)c1cc2cccc(Cl)c2c(=O)n1-c1ccccc1 [duvelisib]
Summary of the method: as §1

[6] = compound: Cc1cc(Nc2cc(CN3CCOCC3)c3nc(C)c(Cc4ccc(Cl)cc4F)n3n2)n[nH]1 [gandotinib]
Summary of the method: as §1

[7] = compound: Cc1cc(Nc2cc(N3CCN(C)CC3)nc(Sc3ccc(NC(=O)C4CC4)cc3)n2)n[nH]1 [tozasertib]
Summary of the method: as §1

[8] = compound: Cc1cc(SCc2sc(-c3ccc(C(F)(F)F)cc3)nc2C)ccc1OCC(=O)O
Summary of the method: as §1

[9] = compound: Cc1ccc(-n2nc(C(C)(C)C)cc2NC(=O)Nc2ccc(OCCN3CCOCC3)c3ccccc23)cc1 [doramapimod]
Summary of the method: as §1

[10] = compound: Cc1ccc(C(=O)N(CCCN)[C@@H](c2nc3cc(Cl)ccc3c(=O)n2Cc2ccccc2)C(C)C)cc1 [ispinesib]
Summary of the method: as §1

Measured: log2 fold change

NAP1L5 (UniProt Q96NT1)
inactive: [1] 0.003 | [2] 0.011 | [3] -0.162 | [4] 0.009 | [5] -0.042 | [6] -0.002 | [7] -0.025 | [8] -0.022 | [9] 0.106 | [10] 0.036

NDRG2 (UniProt Q9UN36)
inactive: [1] 0.037 | [2] -0.068 | [3] -0.01 | [4] 0.019 | [5] -0.013 | [6] -0.011 | [7] 0.017 | [8] 0.065 | [9] -0.067 | [10] 0.087

NAA15, A0A0B4J1W3
inactive: [1] -0.15 | [2] -0.009 | [3] 0.088 | [4] -0.083 | [5] 0.151 | [6] -0.123 | [7] -0.006 | [8] 0.069 | [9] -0.237 | [10] 0.105

NECAP2 (UniProt Q9NVZ3)
inactive: [1] 0.028 | [2] -0.006 | [3] 0.022 | [4] -0.119 | [5] 0.02 | [6] -0.058 | [7] -0.055 | [8] -0.06 | [9] -0.037 | [10] 0.098

NBAS (UniProt A2RRP1)
inactive: [1] 0.082 | [2] -0.155 | [3] -0.148 | [4] 0.424 | [5] -0.035 | [6] 0.069 | [7] 0.128 | [8] 0.025 | [9] 0.242 | [10] -0.188

NAGA (UniProt P17050)
inactive: [1] -0.003 | [2] 0.049 | [3] 0.008 | [4] -0.081 | [5] 0.021 | [6] -0.039 | [7] -0.019 | [8] 0.002 | [9] -0.051 | [10] -0.125

NDC80 (UniProt O14777)
inactive: [1] 0.056 | [2] -0.121 | [3] -0.184 | [4] 0.364 | [5] -0.055 | [6] 0.01 | [7] 0.067 | [8] 0.126 | [9] 0.223 | [10] -0.202

NCR3LG1 (UniProt Q68D85)
inactive: [1] 0.064 | [2] 0.047 | [3] -0.071 | [4] -0.049 | [5] 0.031 | [6] -0.168 | [7] -0.035 | [8] 0.076 | [9] 0.032 | [10] 0.072

NDUFV2 (UniProt P19404)
inactive: [1] -0.022 | [2] -0.047 | [3] 0.036 | [4] -0.03 | [5] -0.014 | [6] 0.012 | [7] -0.057 | [8] 0.007 | [9] 0.017 | [10] -0.016

NDUFS6 (UniProt O75380)
inactive: [1] -0.001 | [2] -0.082 | [3] 0.025 | [4] 0.071 | [5] -0.026 | [6] 0.04 | [7] -0.084 | [8] -0.053 | [9] 0.034 | [10] -0.081

NACA (UniProt E9PAV3)
inactive: [1] -0.032 | [2] 0.003 | [3] -0.084 | [4] 0.04 | [5] -0.04 | [6] 0.036 | [7] -0.01 | [8] -0.074 | [9] -0.008 | [10] 0.013

NAGK isoform 2 (UniProt Q9UJ70)
inactive: [1] 0.131 | [2] 0.025 | [3] 0.034 | [4] -0.059 | [5] 0.039 | [6] -0.025 | [7] -0.026 | [8] -0.028 | [9] 0.009 | [10] -0.002

NAA50 (UniProt Q9GZZ1)
inactive: [1] -0.002 | [2] 0.011 | [3] 0.027 | [4] -0.153 | [5] 0.034 | [6] 0.05 | [7] -0.017 | [8] 0.009 | [9] -0.095 | [10] 0.079

NAA15 (UniProt Q9BXJ9)
inactive: [1] 0.018 | [2] -0.024 | [3] 0.049 | [4] -0.101 | [5] -0.002 | [6] -0.081 | [7] -0.026 | [8] 0 | [9] -0.004 | [10] 0.021

NDUFB11 isoform 2 (UniProt Q9NX14)
inactive: [1] -0.012 | [2] 0.086 | [3] 0.027 | [4] -0.059 | [5] 0.039 | [6] 0.017 | [7] 0.045 | [8] -0.011 | [9] -0.016 | [10] -0.036

Looked up one by one from above, 2 records:
NDUFB11 isoform 2 (UniProt Q9NX14)
inactive: [1] -0.012 | [2] 0.086 | [3] 0.027 | [4] -0.059 | [5] 0.039 | [6] 0.017 | [7] 0.045 | [8] -0.011 | [9] -0.016 | [10] -0.036

NACA (UniProt E9PAV3)
inactive: [1] -0.032 | [2] 0.003 | [3] -0.084 | [4] 0.04 | [5] -0.04 | [6] 0.036 | [7] -0.01 | [8] -0.074 | [9] -0.008 | [10] 0.013

Next records follow.

NDUFA7 (UniProt M0R0N0)
inactive: [1] 0.095

NDUFV3 isoform 2 (UniProt P56181)
inactive: [1] -0.017 | [2] -0.034 | [3] 0.022 | [4] -0.023 | [5] -0.053 | [6] -0.01 | [7] -0.054 | [8] -0.092 | [9] 0.009 | [10] -0.027

NAE1 (UniProt Q13564)
inactive: [1] 0.015 | [2] -0.135 | [3] -0.002 | [4] -0.015 | [5] 0.02 | [6] -0.059 | [7] -0.055 | [8] 0.043 | [9] 0.052 | [10] -0.041

NDST1 (UniProt P52848)
inactive: [1] 0.007 | [2] 0.058 | [3] 0.054 | [4] 0.053 | [5] -0.014 | [6] 0.145 | [7] -0.039 | [8] -0.097 | [9] -0.035

N4BP1 (UniProt O75113)
inactive: [1] 0.027 | [2] 0 | [3] 0.03 | [4] -0.084 | [5] 0.107 | [6] 0.182 | [7] -0.036 | [8] -0.103 | [9] 0.009 | [10] -0.198

NDUFB4 (UniProt O95168)
inactive: [1] 0.024 | [2] 0.094 | [3] 0.096 | [4] -0.01 | [5] 0.019 | [6] 0.089 | [7] 0.012 | [8] 0.021 | [9] -0.029 | [10] -0.032

NDUFS3 (UniProt O75489)
inactive: [1] -0.01 | [2] -0.068 | [3] 0.085 | [4] -0.015 | [5] 0.064 | [6] -0.077 | [7] -0.004 | [8] 0.021 | [9] -0.059 | [10] -0.039

NARF (UniProt Q9UHQ1)
inactive: [1] 0.007 | [2] 0.047 | [3] -0.012 | [4] -0.007 | [5] -0.036 | [6] -0.001 | [7] -0.008 | [8] -0.024 | [9] 0.021 | [10] 0.033

NAF1 (UniProt Q96HR8)
inactive: [1] -0.009 | [2] 0.008 | [3] -0.071 | [4] 0.068 | [5] -0.053 | [6] 0.105 | [7] 0.012 | [8] -0.041 | [9] -0.035 | [10] 0.047

NAMPT (UniProt P43490)
inactive: [1] -0.003 | [2] 0.076 | [3] 0.038 | [4] -0.041 | [5] 0.025 | [6] 0.006 | [7] -0.027 | [8] -0.041 | [9] -0.039 | [10] 0.02

NDRG3 (UniProt Q9UGV2)
inactive: [1] -0.006 | [2] -0.044 | [3] 0.043 | [4] 0.123 | [5] 0.03 | [6] -0.063 | [7] -0.026 | [8] 0.057 | [9] 0.036 | [10] 0.005

NDOR1 isoform 2 (UniProt Q9UHB4)
inactive: [1] 0.098 | [2] 0.08 | [3] 0.047 | [4] -0.014 | [5] 0.063 | [6] 0.029 | [7] -0.006 | [8] 0.012 | [9] -0.035 | [10] 0.007

NDUFA11 (UniProt Q86Y39)
inactive: [1] 0.019 | [2] 0.057 | [3] 0.137 | [4] -0.097 | [5] 0.057 | [6] -0.023 | [7] 0.029 | [8] -0.004 | [9] -0.054 | [10] 0

NAGLU (UniProt P54802)
inactive: [1] -0.035 | [2] -0.017 | [3] -0.121 | [4] -0.106 | [5] 0.002 | [6] 0.011 | [7] 0.027 | [8] -0.049 | [9] -0.052 | [10] -0.069

NADK (UniProt O95544)
inactive: [1] 0.001 | [2] 0.022 | [3] -0.027 | [4] -0.02 | [5] 0.063 | [6] -0.009 | [7] -0.029 | [8] -0.054 | [9] -0.002 | [10] 0.009
